Measured values from US12419869B2, “Methods of treating multiple sclerosis” (Vanda Pharmaceuticals Inc., priority 2021, dated 2025).

test system: persons with MS; test: Retrospective cohort study of US administrative claims databases: differential clinical management events per S1P; parameters: species or system human; details: IBM CCAE study cohort

SMILES | DDIs (average number of S1P's differential DDI drugs taken concomitantly with any MS DMT in a 1-year period)
CCC/N=C1\S/C(=C\c2ccc(OC[C@H](O)CO)c(Cl)c2)C(=O)N1c1ccccc1C [Ponesimod, (R)-5-[3-chloro-4-(2,3-dihydroxy-propoxy)-benz[Z]ylidene]-2-([Z]-propylimino)-3-o-tolyl-thiazolidin-4-one] | 0.02
CCc1cc(/C(C)=N/OCc2ccc(C3CCCCC3)c(C(F)(F)F)c2)ccc1CN1CC(C(=O)O)C1 [Siponimod] | 0.10
CC(C)Oc1ccc(-c2nc(-c3cccc4c3CC[C@@H]4NCCO)no2)cc1C#N [Ozanimod] | 1.76
